PubChem BioAssay AID743454, Peter MacCallum Cancer Centre – 2014
In all, the deposit lists about 18,000 reagents; this is a random part of them. Over the whole deposit, 450 (2.5%) are marked active. 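Single biological run; no consistent viability z cut-off exists, so the class columns, not z-scores, define the calls.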 A number with no mark means an inactive call. Reagent sequences are not shown.

- Aim: 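Knock-downs lowering viability or raising caspase 3/7 activity in vorinostat-treated resistant cells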 (primary screen)
- System: human HCT116-VR colon cancer cells, selected for vorinostat resistance
- Reagents: siRNA pool against human genes, 40 nM siRNA pool
- Duration: vorinostat for 24 h, read-out about 72 h after transfection
- Conditions: vorinostat at 2.5 µM final
- Read-out: 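Cell viability by CellTiter-Fluor and caspase 3/7 activity by luminescence, each scaled to mock wells per plate, duplicates averaged, then robust z-scored over all plates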
- Reading the numbers: viability robust z-score: higher = more viable cells than screen typical; caspase robust z-score: higher = more caspase 3/7 activity than screen typical
- Hit rule: 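a knock-down is a hit when classed RV1 or RV2 for lowered viability, or CA1 or CA2 for caspase activation; those lethal without drug were dropped; hits were retested singly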

gene | viability hit class | caspase hit class | viability robust z-score | caspase robust z-score
PLEKHM3 (pleckstrin homology domain containing M3) | no change | no change | 0.85 | -0.75
AAMP (angio associated migratory cell protein) | no change | no change | -0.76 | -0.52
CPB2 (carboxypeptidase B2) | no change | no change | -0.61 | -0.32
SBDS (SBDS ribosome maturation factor) | no change | no change | 0.45 | -0.44
TBKBP1 (TBK1 binding protein 1) | no change | no change | -2.05 | 1.09
CTSA (cathepsin A) | no change | no change | -1.07 | 1.81
FGD6 (FYVE, RhoGEF and PH domain containing 6) | no change | no change | 0.46 | -0.64
PLCH1 (phospholipase C eta 1) | no change | no change | 0.72 | -0.32
SLC66A2 | no change | no change | 1.34 | -0.84
SH2D6 (SH2 domain containing 6) | no change | no change | 0.64 | 0.5
METAP1 (methionyl aminopeptidase 1) | no change | no change | 0.74 | -0.68
ZNF275 (zinc finger protein 275) | no change | no change | 0.24 | 0.68
TSEN15 (tRNA splicing endonuclease subunit 15) | no change | no change | 1.03 | -0.38
NEUROD2 (neuronal differentiation 2) | no change | no change | -0.72 | 1.07
FBN2 (fibrillin 2) | no change | no change | -0.36 | -1.23
NBPF3 (NBPF member 3) | no change | no change | 1.31 | -0.11
DYDC2 (DPY30 domain containing 2) | no change | no change | 0.27 | 2.62
TMEM97 (transmembrane protein 97) | no change | no change | 0.08 | -0.58
SNAI3 (snail family transcriptional repressor 3) | no change | no change | -2.12 | 0.28
CHP2 (calcineurin like EF-hand protein 2) | no change | no change | 0.94 | 1.23
LENEP (lens epithelial protein) | no change | no change | -0.68 | 1.46
PLPP4 (phospholipid phosphatase 4) | no change | no change | 0.82 | 1.04
SMPX (small muscle protein X-linked) | no change | no change | 0.52 | -0.34
TMPRSS12 (transmembrane serine protease 12) | no change | no change | 0.41 | 0.72
RGPD2 (RANBP2 like and GRIP domain containing 2) | no change | no change | -0.82 | 0.84
H2AC6 (H2A clustered histone 6) | no change | no change | 0.02 | 0.97
PDK3 (pyruvate dehydrogenase kinase 3) | no change | no change | -0.08 | 0.7
STK24 (serine/threonine kinase 24) | no change | no change | 0.26 | -0.59
SAR1B (secretion associated Ras related GTPase 1B) | RV2 (reduced viability) (active) | no change | -3.99 | 3.25
SYBU (syntabulin) | no change | no change | -0.72 | -0.24
RHPN1 (rhophilin Rho GTPase binding protein 1) | no change | no change | 1.14 | -0.98
ZNF688 (zinc finger protein 688) | no change | no change | -0.88 | -0.81
SSX4 (SSX family member 4) | no change | no change | 0.72 | -0.78
KCNAB2 | no change | no change | -0.94 | -0.02
SCAMP1 | no change | no change | -0.14 | -0.18
KCTD11 (potassium channel tetramerization domain containing 11) | no change | no change | -0.68 | 3.83
GRK3 (G protein-coupled receptor kinase 3) | no change | no change | 0.64 | -0.7
CHAMP1 (chromosome alignment maintaining phosphoprotein 1) | no change | no change | 0.3 | -0.48
USP26 (ubiquitin specific peptidase 26) | no change | no change | 0.22 | -0.4
SH3D19 (SH3 domain containing 19) | no change | no change | 0.49 | -0.44
UBE2L6 (ubiquitin conjugating enzyme E2 L6) | no change | no change | 1.12 | -1.02
SNX18 (sorting nexin 18) | no change | no change | -3.33 | 0.24

A few values from the entries so far.
For “viability hit class”, H2AC6 (H2A clustered histone 6) is entered as no change
For “caspase hit class”, STK24 (serine/threonine kinase 24) reads no change
Result for RHPN1 (rhophilin Rho GTPase binding protein 1) in “caspase robust z-score”: -0.98
UBE2L6 (ubiquitin conjugating enzyme E2 L6), viability hit class = no change
Entry of NBPF3 (NBPF member 3) in “viability robust z-score”: 1.31
SYBU (syntabulin), viability hit class → no change

The listing continues.
gene | viability hit class | caspase hit class | viability robust z-score | caspase robust z-score
UNC119 (unc-119 lipid binding chaperone) | no change | no change | 2.6 | -0.4
TFAP2D (transcription factor AP-2 delta) | no change (active) | CA1 (caspase activation) | 1.18 | 5.37
SLC5A12 | no change | no change | 1.81 | -0.42
FNDC8 (fibronectin type III domain containing 8) | no change | no change | -0.08 | 4.39
PCYOX1L (prenylcysteine oxidase 1 like) | no change | no change | 1.4 | 0.34
SPATA31E1 (SPATA31 subfamily E member 1) | no change | no change | 0.07 | 1.88
ATP6V1H (ATPase H+ transporting V1 subunit H) | no change | no change | 0.96 | -0.76
SLC47A2 | no change | no change | -1.05 | 0.12
ACTG2 (actin gamma 2, smooth muscle) | no change | no change | -0.12 | -1.12
GZMM (granzyme M) | no change | no change | -0.12 | 2.21
HIRIP3 (HIRA interacting protein 3) | no change | no change | -1.13 | -1.06
HAUS1 (HAUS augmin like complex subunit 1) | no change | no change | 0.92 | 1.92
SPATC1L (spermatogenesis and centriole associated 1 like) | no change | no change | -1.5 | -0.74
GGT5 (gamma-glutamyltransferase 5) | no change | no change | -0.7 | 1.01
LYG1 (lysozyme g1) | no change | no change | 0.16 | 2
CSAD (cysteine sulfinic acid decarboxylase) | no change | no change | -0.88 | 1.09
DNASE1 (deoxyribonuclease 1) | no change | no change | -0.08 | 0.62
HES3 (hes family bHLH transcription factor 3) | no change | no change | -0.2 | 1.51
OPRD1 (opioid receptor delta 1) | no change | no change | 0.06 | 1.5
TBXT (T-box transcription factor T) | no change | no change | -1.63 | 4.62
ZZZ3 (zinc finger ZZ-type containing 3) | no change | no change | -1.58 | -0.08
TUT1 (terminal uridylyl transferase 1, U6 snRNA-specific) | no change | no change | -0.6 | 1.94
PTTG1 | no change | no change | 0.7 | -0.32
LSMEM2 (leucine rich single-pass membrane protein 2) | no change | no change | -1.25 | -0.02
HTN3 (histatin 3) | no change | no change | 0 | 0.87
FDCSP (follicular dendritic cell secreted protein) | no change | no change | -0.39 | 0.83
PRIM2 (DNA primase subunit 2) | no change | no change | 1.18 | -0.24
SLC6A2 | no change | no change | -1.15 | 4.97
ANLN (anillin, actin binding protein) | no change | no change | -1.84 | 0.49
PARPBP (PARP1 binding protein) | no change | no change | 0.96 | -0.62
DCP1A (decapping mRNA 1A) | no change | no change | -0.12 | 1.39
